Data as given in PubChem BioAssay AID1259308 (NCATS, 2017)

Purpose: 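Genes whose loss raises luciferase production in HEK293 cells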 (primary screen)
Cell system: human HEK293 embryonic kidney cells stably expressing firefly luciferase (HEK-CMV-Luc2-Hygro)
Reagents: single siRNA against human genes, 0.8 pmol siRNA per well
Time to read-out: 72 h
Detection: 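Reporter luminescence and viable-cell signal on separate replicate plates, given as percent of non-targeting control and median/MAD z-scores, plus per-cell luciferase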
Scale: total luciferase, z-score and total luciferase, % of control: higher = more reporter protein produced; luciferase per cell, z-score: higher = more reporter output per viable cell; viable cells, % of control: higher = more viable cells
Active means: 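An siRNA counts as active if its total luciferase robust z-score exceeds 3; genes with two or more such siRNAs out of three were retested with fresh siRNAs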
Meaning of the calls: active = raised luciferase; inactive = no rise
This is one part, drawn at random, of about 59,000 reagents tested. About 1,510 of all reagents (2.6%) count as active. 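Calls use total luciferase alone and ignore viability, so some active siRNAs may act by altering cell number.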 Entries without a mark were called inactive. The numbers tell different reagents against one gene apart.

no.	target	siRNA no.	total luciferase, z-score	total luciferase, % of control	luciferase per cell, z-score	viable cells, % of control
1	ALPK3 (alpha kinase 3)	1	0.76	97	0.526	94.4
2	ALPK3 (alpha kinase 3)	2	-0.868	64.6	-0.946	92.6
3	ALPK3 (alpha kinase 3)	3	-0.866	64.7	0.789	58.7
4	ATP4B (ATPase H+/K+ transporting subunit beta)	1	4.95 (active)	180	4.21	66.5
5	ATP4B (ATPase H+/K+ transporting subunit beta)	2	1.72	116	0.453	115
6	ATP4B (ATPase H+/K+ transporting subunit beta)	3	-1.46	52.9	-1.14	79.8
7	STAC2 (SH3 and cysteine rich domain 2)	1	-2.28	36.6	-2.48	78.5
8	STAC2 (SH3 and cysteine rich domain 2)	2	-0.439	73.2	0.472	72.2
9	STAC2 (SH3 and cysteine rich domain 2)	3	-0.746	67	-0.224	79.5
10	ESCO1	1	-1.89	44.4	-0.286	53.5
11	ESCO1	2	1.17	105	0.358	107
12	ESCO1	3	-0.758	66.8	-0.517	85.5
13	KRABD2 (KRAB domain containing 2)	1	1.83	118	1.91	79.9
14	KRABD2 (KRAB domain containing 2)	2	0.197	85.8	1.2	70
15	KRABD2 (KRAB domain containing 2)	3	0.225	86.4	-0.164	101
16	ZFP30 (ZFP30 zinc finger protein)	1	-0.449	73	-0.732	98.9
17	ZFP30 (ZFP30 zinc finger protein)	2	-2.36	35	-1.39	56.5
18	ZFP30 (ZFP30 zinc finger protein)	3	2.17	125	1.45	95.4
19	RELT (RELT TNF receptor)	1	0.319	88.2	0.26	92.1
20	RELT (RELT TNF receptor)	2	0.842	98.6	0.574	94.8
21	RELT (RELT TNF receptor)	3	-0.268	76.6	-0.374	94.4
22	KCNV1	1	-1.55	51.1	-1.47	84.2
23	KCNV1	2	-0.427	73.4	-0.389	90.9
24	KCNV1	3	0.195	85.8	0.0395	94.9
25	SNAPC5 (small nuclear RNA activating complex polypeptide 5)	1	1.34	109	0.649	102
26	SNAPC5 (small nuclear RNA activating complex polypeptide 5)	2	2.98	141	2.71	77.2
27	SNAPC5 (small nuclear RNA activating complex polypeptide 5)	3	2.32	128	0.992	110
28	FGF7P6 (fibroblast growth factor 7 pseudogene 6)	1	1.97	121	1.88	82.5
29	FGF7P6 (fibroblast growth factor 7 pseudogene 6)	2	0.24	86.7	0.295	89.6
30	FGF7P6 (fibroblast growth factor 7 pseudogene 6)	3	0.523	92.3	0.441	91.8
31	HTATSF1 (HIV-1 Tat specific factor 1)	1	0.104	84	-0.378	104
32	HTATSF1 (HIV-1 Tat specific factor 1)	2	0.787	97.5	0.0986	106
33	HTATSF1 (HIV-1 Tat specific factor 1)	3	0.564	93.1	0.801	84.2
34	ADAMTS10 (ADAM metallopeptidase with thrombospondin type 1 motif 10)	1	2.02	122	1.59	89.8
35	ADAMTS10 (ADAM metallopeptidase with thrombospondin type 1 motif 10)	2	-2.08	40.6	-1.55	68.2
36	ADAMTS10 (ADAM metallopeptidase with thrombospondin type 1 motif 10)	3	-1.23	57.4	-1.36	91.8
37	NLE1 (notchless homolog 1)	1	-0.0828	80.2	0.605	76.5
38	NLE1 (notchless homolog 1)	2	1.14	105	0.847	93.5
39	NLE1 (notchless homolog 1)	3	-0.823	65.5	-0.364	80.6
40	ADAM33 (ADAM metallopeptidase domain 33)	1	-0.62	69.6	-1.26	108
41	ADAM33 (ADAM metallopeptidase domain 33)	2	1.68	115	1.86	79
42	ADAM33 (ADAM metallopeptidase domain 33)	3	-0.651	68.9	0.806	62.3
43	RTN3 (reticulon 3)	1	-0.318	75.6	0.159	81
44	RTN3 (reticulon 3)	2	0.935	100	0.824	90.4
45	RTN3 (reticulon 3)	3	0.541	92.6	-0.105	106
46	PTPN21 (protein tyrosine phosphatase non-receptor type 21)	1	-0.174	78.4	0.00218	87.6
47	PTPN21 (protein tyrosine phosphatase non-receptor type 21)	2	-1.55	51	-1.3	80.4
48	PTPN21 (protein tyrosine phosphatase non-receptor type 21)	3	-1.41	53.9	-2.49	116
49	SIT1 (signaling threshold regulating transmembrane adaptor 1)	1	1.28	107	1.55	79.8
50	SIT1 (signaling threshold regulating transmembrane adaptor 1)	2	-0.099	79.9	-0.768	109
51	SIT1 (signaling threshold regulating transmembrane adaptor 1)	3	-0.639	69.2	-0.987	100
52	RBM42 (RNA binding motif protein 42)	1	0.304	87.9	-0.367	108
53	RBM42 (RNA binding motif protein 42)	2	2.91	140	2.59	79
54	RBM42 (RNA binding motif protein 42)	3	0.545	92.7	0.246	97.1
55	SLC28A1	1	-0.191	78.1	-0.721	106
56	SLC28A1	2	1.59	114	0.575	109
57	SLC28A1	3	0.665	95.1	1.26	76.2
